Measured values from the supplement of paper PMC12819154, “High-throughput peptide-centric local stability assay extends protein–ligand identification to membrane proteins, tissues and bacteria” (Nature Structural & Molecular Biology, 2025).
The other results are listed elsewhere or left out. Most entries show no effect beyond the scatter of the controls.

Chains of the proteins cited; added tags and fusions are not shown. Lines headed by an entry give the natural chain unless they say otherwise; changes in a name come on top.
UniProt Q8NHQ9: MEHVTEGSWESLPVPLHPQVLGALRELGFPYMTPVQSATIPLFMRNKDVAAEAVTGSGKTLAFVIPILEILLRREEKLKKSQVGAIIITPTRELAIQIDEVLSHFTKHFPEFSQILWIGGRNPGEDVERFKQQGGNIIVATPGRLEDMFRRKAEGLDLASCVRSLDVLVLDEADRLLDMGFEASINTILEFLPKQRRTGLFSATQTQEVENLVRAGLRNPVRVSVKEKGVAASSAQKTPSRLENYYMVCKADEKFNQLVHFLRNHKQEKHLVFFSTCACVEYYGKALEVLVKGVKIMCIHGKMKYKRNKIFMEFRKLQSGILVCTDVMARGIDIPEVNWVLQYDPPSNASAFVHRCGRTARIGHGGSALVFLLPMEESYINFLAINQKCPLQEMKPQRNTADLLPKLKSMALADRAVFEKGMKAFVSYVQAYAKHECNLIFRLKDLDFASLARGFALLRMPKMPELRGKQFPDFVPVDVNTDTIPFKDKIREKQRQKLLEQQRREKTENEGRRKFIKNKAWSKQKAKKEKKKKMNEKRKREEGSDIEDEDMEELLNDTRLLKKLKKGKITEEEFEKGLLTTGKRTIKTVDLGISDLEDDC
UniProt Q8NDD1: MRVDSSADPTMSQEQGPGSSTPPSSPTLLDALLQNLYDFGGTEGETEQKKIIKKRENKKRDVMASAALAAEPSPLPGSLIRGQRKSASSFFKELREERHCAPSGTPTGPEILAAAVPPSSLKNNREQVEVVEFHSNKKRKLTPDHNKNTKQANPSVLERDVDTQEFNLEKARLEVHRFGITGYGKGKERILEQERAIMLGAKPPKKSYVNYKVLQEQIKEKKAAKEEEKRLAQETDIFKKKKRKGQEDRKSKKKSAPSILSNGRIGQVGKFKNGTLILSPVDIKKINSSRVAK
UniProt Q8NCN4: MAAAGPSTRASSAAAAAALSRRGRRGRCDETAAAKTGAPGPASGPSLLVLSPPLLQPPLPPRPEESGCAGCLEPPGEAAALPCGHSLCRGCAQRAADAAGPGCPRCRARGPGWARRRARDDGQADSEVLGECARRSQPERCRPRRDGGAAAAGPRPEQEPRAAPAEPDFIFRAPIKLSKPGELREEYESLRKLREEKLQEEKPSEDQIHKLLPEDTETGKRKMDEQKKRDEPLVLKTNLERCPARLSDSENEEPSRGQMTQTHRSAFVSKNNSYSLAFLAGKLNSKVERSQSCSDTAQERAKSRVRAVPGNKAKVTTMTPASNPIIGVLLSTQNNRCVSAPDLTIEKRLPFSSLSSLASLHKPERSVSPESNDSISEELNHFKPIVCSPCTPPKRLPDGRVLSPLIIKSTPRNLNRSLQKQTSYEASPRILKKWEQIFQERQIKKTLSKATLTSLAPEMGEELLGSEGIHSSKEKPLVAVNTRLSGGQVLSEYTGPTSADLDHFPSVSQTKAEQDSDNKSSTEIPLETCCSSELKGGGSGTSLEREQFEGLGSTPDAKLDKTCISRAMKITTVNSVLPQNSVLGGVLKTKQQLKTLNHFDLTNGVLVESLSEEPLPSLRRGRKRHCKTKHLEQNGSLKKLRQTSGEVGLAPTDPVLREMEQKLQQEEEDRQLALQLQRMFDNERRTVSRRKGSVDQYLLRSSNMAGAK
UniProt Q8TAV0: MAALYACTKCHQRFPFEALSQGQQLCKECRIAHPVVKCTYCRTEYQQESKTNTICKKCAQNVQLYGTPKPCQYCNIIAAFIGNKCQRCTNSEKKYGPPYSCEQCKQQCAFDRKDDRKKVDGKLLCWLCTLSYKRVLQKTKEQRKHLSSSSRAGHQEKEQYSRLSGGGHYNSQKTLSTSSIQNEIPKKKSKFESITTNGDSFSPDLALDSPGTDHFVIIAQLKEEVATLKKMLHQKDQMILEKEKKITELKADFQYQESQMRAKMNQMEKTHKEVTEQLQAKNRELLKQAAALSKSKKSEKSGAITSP
UniProt Q8N5F7: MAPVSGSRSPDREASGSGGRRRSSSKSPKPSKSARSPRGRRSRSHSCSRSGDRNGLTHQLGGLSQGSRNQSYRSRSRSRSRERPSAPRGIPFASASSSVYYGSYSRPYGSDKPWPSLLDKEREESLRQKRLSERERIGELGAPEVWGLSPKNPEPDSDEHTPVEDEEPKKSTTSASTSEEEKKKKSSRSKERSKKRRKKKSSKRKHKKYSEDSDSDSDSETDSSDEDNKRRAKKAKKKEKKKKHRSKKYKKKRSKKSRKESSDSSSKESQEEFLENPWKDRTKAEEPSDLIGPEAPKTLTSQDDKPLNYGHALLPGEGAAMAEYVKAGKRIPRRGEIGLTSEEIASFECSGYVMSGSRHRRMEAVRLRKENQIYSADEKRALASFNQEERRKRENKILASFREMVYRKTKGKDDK
UniProt Q8N5M1: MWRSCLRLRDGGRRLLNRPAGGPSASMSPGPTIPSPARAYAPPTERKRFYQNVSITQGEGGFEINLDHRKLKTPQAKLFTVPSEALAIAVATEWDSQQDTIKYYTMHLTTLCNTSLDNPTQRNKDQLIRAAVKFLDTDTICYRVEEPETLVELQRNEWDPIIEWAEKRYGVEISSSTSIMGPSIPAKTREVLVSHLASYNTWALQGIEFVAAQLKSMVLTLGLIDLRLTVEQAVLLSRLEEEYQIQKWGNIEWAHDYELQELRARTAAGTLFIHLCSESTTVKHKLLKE
UniProt Q8NEM2: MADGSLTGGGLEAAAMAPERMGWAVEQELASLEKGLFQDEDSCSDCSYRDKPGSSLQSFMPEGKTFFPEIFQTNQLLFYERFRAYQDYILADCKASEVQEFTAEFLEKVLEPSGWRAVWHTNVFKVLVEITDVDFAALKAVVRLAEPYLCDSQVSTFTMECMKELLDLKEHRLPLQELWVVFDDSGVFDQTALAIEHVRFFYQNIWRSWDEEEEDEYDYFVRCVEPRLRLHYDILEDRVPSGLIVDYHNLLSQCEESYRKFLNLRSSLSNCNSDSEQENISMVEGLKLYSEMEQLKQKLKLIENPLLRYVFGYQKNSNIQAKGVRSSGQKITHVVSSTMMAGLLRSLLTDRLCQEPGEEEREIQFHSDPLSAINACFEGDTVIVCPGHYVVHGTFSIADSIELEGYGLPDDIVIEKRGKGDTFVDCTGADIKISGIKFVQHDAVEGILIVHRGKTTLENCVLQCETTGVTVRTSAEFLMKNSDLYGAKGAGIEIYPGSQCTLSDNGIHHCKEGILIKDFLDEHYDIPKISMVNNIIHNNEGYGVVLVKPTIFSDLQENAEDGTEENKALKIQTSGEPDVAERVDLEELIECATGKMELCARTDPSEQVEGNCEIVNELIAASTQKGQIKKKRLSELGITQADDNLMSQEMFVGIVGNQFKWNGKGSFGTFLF
UniProt Q8NBK3: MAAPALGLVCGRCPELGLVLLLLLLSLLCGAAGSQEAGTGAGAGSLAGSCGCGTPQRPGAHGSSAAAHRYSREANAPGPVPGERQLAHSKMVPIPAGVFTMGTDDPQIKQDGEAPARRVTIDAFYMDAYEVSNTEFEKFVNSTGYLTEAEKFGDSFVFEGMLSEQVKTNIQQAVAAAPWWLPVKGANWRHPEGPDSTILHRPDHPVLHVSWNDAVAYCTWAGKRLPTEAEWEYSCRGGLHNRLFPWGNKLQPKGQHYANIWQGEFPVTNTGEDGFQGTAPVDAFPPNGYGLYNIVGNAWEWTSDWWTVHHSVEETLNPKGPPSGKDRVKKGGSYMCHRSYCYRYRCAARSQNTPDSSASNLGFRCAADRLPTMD
UniProt Q8NC56: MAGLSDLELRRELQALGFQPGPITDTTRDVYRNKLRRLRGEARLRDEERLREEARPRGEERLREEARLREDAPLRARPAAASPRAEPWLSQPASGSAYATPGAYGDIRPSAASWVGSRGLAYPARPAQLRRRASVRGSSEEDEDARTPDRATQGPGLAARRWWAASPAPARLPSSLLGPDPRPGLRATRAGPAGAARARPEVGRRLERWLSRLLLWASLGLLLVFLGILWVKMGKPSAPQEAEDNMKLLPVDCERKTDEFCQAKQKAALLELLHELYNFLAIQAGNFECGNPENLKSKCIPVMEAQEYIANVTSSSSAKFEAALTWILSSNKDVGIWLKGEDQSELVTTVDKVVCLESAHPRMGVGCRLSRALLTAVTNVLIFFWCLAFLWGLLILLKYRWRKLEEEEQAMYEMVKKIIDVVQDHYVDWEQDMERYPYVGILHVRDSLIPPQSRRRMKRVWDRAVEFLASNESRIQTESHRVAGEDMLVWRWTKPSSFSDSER
UniProt Q8TBC3: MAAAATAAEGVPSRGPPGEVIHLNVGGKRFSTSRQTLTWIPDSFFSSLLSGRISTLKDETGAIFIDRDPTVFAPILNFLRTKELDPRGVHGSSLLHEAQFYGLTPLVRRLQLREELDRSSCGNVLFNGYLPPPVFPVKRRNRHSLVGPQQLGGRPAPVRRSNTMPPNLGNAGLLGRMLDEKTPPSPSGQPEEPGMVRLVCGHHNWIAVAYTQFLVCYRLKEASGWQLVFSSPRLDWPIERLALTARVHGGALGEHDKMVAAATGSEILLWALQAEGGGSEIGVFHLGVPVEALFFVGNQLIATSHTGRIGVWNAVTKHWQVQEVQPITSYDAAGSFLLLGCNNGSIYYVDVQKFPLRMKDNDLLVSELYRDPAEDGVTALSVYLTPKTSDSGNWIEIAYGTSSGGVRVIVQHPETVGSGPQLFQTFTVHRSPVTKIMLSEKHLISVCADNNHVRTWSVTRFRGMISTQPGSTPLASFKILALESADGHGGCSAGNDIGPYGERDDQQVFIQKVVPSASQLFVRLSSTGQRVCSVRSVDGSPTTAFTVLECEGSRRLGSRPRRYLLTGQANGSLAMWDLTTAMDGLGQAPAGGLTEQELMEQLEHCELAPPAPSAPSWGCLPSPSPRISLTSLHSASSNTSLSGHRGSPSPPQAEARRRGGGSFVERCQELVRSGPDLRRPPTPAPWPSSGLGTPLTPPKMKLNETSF
UniProt Q8NFU5: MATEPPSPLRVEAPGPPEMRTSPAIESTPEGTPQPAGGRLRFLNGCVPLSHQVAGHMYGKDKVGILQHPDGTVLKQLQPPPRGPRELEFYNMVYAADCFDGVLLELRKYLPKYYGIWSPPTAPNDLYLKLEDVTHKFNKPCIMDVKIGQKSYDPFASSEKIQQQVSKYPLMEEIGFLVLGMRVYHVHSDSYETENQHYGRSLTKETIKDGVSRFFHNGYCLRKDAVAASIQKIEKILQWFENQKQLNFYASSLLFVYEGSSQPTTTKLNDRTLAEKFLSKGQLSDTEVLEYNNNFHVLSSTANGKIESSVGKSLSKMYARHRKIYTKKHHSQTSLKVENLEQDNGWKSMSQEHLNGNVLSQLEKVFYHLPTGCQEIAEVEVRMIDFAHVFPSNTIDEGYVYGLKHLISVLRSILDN
UniProt Q8NAP3: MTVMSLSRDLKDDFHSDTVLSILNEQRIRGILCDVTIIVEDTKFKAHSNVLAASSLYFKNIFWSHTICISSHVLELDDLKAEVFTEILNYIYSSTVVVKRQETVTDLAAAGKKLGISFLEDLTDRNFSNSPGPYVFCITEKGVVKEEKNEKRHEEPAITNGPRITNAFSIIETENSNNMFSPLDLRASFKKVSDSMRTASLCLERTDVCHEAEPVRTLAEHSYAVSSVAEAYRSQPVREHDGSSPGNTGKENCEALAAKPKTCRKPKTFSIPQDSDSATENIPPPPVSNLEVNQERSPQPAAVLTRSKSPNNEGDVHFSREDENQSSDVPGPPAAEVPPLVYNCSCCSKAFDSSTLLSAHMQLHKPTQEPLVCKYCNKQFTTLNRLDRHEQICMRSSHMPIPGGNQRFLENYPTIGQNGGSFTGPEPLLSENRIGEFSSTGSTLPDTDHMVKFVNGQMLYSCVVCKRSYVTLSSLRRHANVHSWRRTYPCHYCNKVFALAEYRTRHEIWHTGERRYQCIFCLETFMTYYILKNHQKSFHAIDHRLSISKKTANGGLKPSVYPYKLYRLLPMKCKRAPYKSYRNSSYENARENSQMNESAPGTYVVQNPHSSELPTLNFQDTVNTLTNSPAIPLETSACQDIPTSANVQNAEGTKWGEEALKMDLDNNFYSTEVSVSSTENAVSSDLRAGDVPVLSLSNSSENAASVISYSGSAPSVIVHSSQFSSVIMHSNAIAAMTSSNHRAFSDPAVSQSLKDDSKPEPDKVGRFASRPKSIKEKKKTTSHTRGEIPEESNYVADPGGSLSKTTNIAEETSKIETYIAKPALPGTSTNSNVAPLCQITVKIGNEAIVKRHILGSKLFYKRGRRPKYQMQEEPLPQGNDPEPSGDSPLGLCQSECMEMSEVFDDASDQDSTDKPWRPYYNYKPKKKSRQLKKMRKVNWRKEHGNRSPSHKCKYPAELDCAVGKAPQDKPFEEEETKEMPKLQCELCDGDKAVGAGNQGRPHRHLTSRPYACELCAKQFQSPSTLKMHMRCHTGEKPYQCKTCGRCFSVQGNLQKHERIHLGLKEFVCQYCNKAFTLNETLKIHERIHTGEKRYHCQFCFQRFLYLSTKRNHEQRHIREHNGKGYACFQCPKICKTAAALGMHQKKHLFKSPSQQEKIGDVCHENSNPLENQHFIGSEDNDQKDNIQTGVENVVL

Compound: CN[C@@H]1C[C@H]2O[C@@](C)([C@@H]1OC)n1c3ccccc3c3c4c(c5c6ccccc6n2c5c31)C(=O)NC4 [staurosporine]
Assay: log2 fold change of tryptic peptide abundance, ligand vs vehicle (limited proteolysis) (log2 ratio); higher = more trypsin-susceptible (destabilized)
Conditions: ligand concentration: 20 uM; sample: K562 cleared lysate; digestion: 4 min, 22 C (HT-PELSA RT4min, Orbitrap Astral)

Row | Target | log2 fold change
1 | DDX55 (peptide sequence: CPLQEMKPQR, peptide start residue: 389) (UniProt Q8NHQ9) | -0.38
2 | C1orf131 (peptide sequence: KLTPDHNK, peptide start residue: 140) (UniProt Q8NDD1) | -0.398
3 | RNF169 (peptide sequence: LSDSENEEPSR, peptide start residue: 246) (UniProt Q8NCN4) | 0.774
4 | UniProt Q8N7N1 (peptide sequence: SFPWQSLEAK, peptide start residue: 28) | -0.241
5 | FAM76A (peptide sequence: AGHQEKEQYSR, peptide start residue: 152) (UniProt Q8TAV0) | -0.973
6 | UniProt Q8NDC4 (peptide sequence: FNGVGVFIR, peptide start residue: 71) | -0.0636
7 | NKAP (peptide sequence: NGLTHQLGGLSQGSR, peptide start residue: 54) (UniProt Q8N5F7) | -0.0708
8 | DDX51 (peptide sequence: FLIIDEADR, peptide start residue: 367) (UniProt Q8N8A6) | -0.293
9 | TMEM199 (peptide sequence: HGGTLSDLGK, peptide start residue: 129) (UniProt Q8N511) | 0.674
10 | ZCCHC9 (peptide sequence: AKVDPALGEFPFAK, peptide start residue: 172) (UniProt Q8N567) | -0.329
11 | MINDY2 (peptide sequence: DSGLESPAAAEAPLRGQYK, peptide start residue: 89) (UniProt Q8NBR6) | 0.046
12 | ATPAF2 (peptide sequence: KLKTPQAK, peptide start residue: 70) (UniProt Q8N5M1) | 0.555
13 | PDPR (peptide sequence: RKDDMELSDLHGK, peptide start residue: 867) (UniProt Q8NCN5) | -0.0684
14 | UniProt Q8NB25 (peptide sequence: LQNELDLTK, peptide start residue: 583) | 0.0628
15 | ZC3H8 (peptide sequence: EMANAAQPEESTKK, peptide start residue: 102) (UniProt Q8N5P1) | -0.188
16 | PRPF38A (peptide sequence: RYVLEEAEQLEPR, peptide start residue: 168) (UniProt Q8NAV1) | -0.24
17 | SHCBP1 (peptide sequence: EGILIKDFLDEHYDIPK, peptide start residue: 512) (UniProt Q8NEM2) | 0.304
18 | SUMF1 (peptide sequence: EANAPGPVPGER, peptide start residue: 73) (UniProt Q8NBK3) | -0.117
19 | ZNF485 (peptide sequence: EAPSGTHAVEDYWFETK, peptide start residue: 75) (UniProt Q8NCK3) | -0.39
20 | LEMD2 (peptide sequence: LPSSLLGPDPRPGLR, peptide start residue: 172) (UniProt Q8NC56) | -0.201
21 | GABPB2 (peptide sequence: VAEETVIKEEEEEKLPLTK, peptide start residue: 316) (UniProt Q8TAK5) | -0.813
22 | CTCFL (peptide sequence: GTFHCDVCMFTSSR, peptide start residue: 255) (UniProt Q8NI51) | -0.222
23 | SHKBP1 (peptide sequence: GGGSFVERCQELVR, peptide start residue: 659) (UniProt Q8TBC3) | -0.137
24 | CBR4 (peptide sequence: VNVVAPGFVHTDMTK, peptide start residue: 173) (UniProt Q8N4T8) | 0.189
25 | IPMK (peptide sequence: VENLEQDNGWK, peptide start residue: 337) (UniProt Q8NFU5) | -0.357
26 | UniProt Q8NAP3 (peptide sequence: AFSDPAVSQSLK, peptide start residue: 743) | 0.415
27 | UniProt Q8ND04 (peptide sequence: HQDPGDPGPGIR, peptide start residue: 82) | 0.25
28 | KRI1 (peptide sequence: SEQEELR, peptide start residue: 562) (UniProt Q8N9T8) | -0.219

Already shown: an excerpt of the list.
Row | Target | log2 fold change
13 | PDPR (peptide sequence: RKDDMELSDLHGK, peptide start residue: 867) (UniProt Q8NCN5) | -0.0684
14 | UniProt Q8NB25 (peptide sequence: LQNELDLTK, peptide start residue: 583) | 0.0628
